Patent US20250381241

Chains of the proteins cited; added tags and fusions are not shown. Lines headed by an entry give the natural chain unless they say otherwise; changes in a name come on top.
UniProt P15976: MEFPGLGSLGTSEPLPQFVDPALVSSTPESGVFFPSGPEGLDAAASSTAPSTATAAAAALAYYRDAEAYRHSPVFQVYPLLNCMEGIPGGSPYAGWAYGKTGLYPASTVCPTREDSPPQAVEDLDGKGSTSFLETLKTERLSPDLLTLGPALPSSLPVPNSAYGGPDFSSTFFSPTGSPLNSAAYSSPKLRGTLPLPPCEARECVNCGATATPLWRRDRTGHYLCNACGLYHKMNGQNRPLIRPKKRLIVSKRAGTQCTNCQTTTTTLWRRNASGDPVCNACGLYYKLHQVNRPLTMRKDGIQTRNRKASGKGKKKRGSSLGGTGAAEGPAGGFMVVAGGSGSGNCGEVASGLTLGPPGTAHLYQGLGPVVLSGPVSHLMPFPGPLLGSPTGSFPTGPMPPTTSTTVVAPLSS

Legend:
[1] = molecular target: HA-RIOK2 WT (Homo sapiens) (UniProt Q9BVS4); assay: activity in cells; details: luciferase, protein in cells, protein details: N-terminal HA
[2] = molecular target: HA-RIOK2 WT (Homo sapiens) (UniProt Q9BVS4); assay: binding assay; details: anti-HA ChIP; protein in cells; protein details: N-terminal HA
[3] = molecular target: HA-RIOK2 NTE (wHTH domain) (Homo sapiens) (UniProt Q9BVS4); assay: binding assay; details: ChIP; more robust than WT; protein in cells; protein details: N-terminal HA
[4] = molecular target: HA-RIOK2 DBM (DNA-binding mutant) N50A,K51A,R54A,E55A,K58A,H59A,K60A (Homo sapiens) (UniProt Q9BVS4); assay: binding assay; details: ChIP; significantly compromised; protein in cells; protein details: N-terminal HA
[5] = molecular target: RIOK2 (endogenous) (Homo sapiens) (UniProt Q9BVS4); assay: binding assay; details: ChIP-qPCR, mono- and polyclonal antibodies; protein in cells
[6] = molecular target: RIOK2 (rhRIOK2, full length) (Homo sapiens) (UniProt Q9BVS4); assay: EMSA; details: partial but significant loss vs WT, gene of duplex shown not given, purified recombinant protein, protein details: GST, Abcam
[7] = molecular target: HA-RIOK2 dTAD2 del77-90 (Homo sapiens) (UniProt Q9BVS4); assay: binding assay; details: ChIP; comparable to WT; protein in cells; protein details: N-terminal HA
[8] = molecular target: HA-RIOK2 dTAD1 del14-29 (Homo sapiens) (UniProt Q9BVS4); assay: binding assay; details: ChIP; comparable to WT; protein in cells; protein details: N-terminal HA
GATA1 [9] = molecular target: GATA1 (UniProt P15976); assay: activity in cells; details: luciferase reporter, HEK293; protein in cells
GATA1 [10] = molecular target: GATA1 (UniProt P15976); assay: binding assay; details: ChIP with two monoclonal antibodies; protein in cells

AGAGACTTCCTGTATGTAGCGCAAGAGATTTATGCAAACGGGTTGGGGCGGTGATGTCACCCCAAGGGGACTATCTCCCAGCGGCAGGCCCTTCGATAAAATCAGGAACTTGTGCTGGCCCTGCAATGTCAAGGGAGGGGGCTCACCCAGGGCTCCTGTAGCTCAGGGGGCAGGCCTGAGCCCTGCACCCGCCCCACGACCGTCCAGCCCCTGACGGGGCACCCCATCCTGAGGGGCTCTGCATTGGCCCCCACCGAGGCAGGGGATCTGACCGACTCGGAGCCCGGCTGGATGTTACAGGCGTGCAAAATGGAAGGGTTTCCCCTCGTCCCCCCT (double strand) [SPI1 promoter]
activity on this sequence ([1]; repression): active | binding result [2]: binds | binding result [3]: binds | binding result [4]: binds more weakly | binding result [5]: binds

ACACACCTGTAGTTTTAGCTACTCAGGAGG (double strand) [GATA1-Mutant duplex]
binding result ([6]; variant of GATA1-WT duplex): binds more weakly

CCGGGCGCCGCCTTTTGCGCCCTGAGGCCC (double strand) [RUNX3-Mutant duplex]
binding result ([6]; variant of RUNX3-WT duplex): binds more weakly

GCCTTCCTTTCGTTTTGAGCCTTGGGCTTTCCTCCCACCCGGGACTGGTGCTCTTTCTCGCCGGATCTGGGCTGGGGCTCCGTGGCGTGCGGGACACCTCGTGGTGGGACTTTGGGGGGTGTCAGGCGCTGGCGGCACGCCTCACTCCCCCTTCCTCGCGCAGGGCCGTTGCCGTCTGCACCCAGACCCTGAGCCGCCGCCGCCGGCCATGGAGGTGGCGCCCGAGCAGCCGCGCTGGATGGCGCACCCGGCCGTGCTGAATGCGCAGCACCCCGACTCACACCACCCGGGCCTGGCGCACAACTACATGGAACCCGCGCAGCTGCTGCCTCCAGACGAGGTGGACGTCTTCTTCAATCACCTCGACTCGCAGGGCAACCCCTACTATGCCAACCCCGCTCACGCGCGGGCGCGCGTCTCCTACAGCCCCGCGCACG (double strand) [GATA2 promoter]
activity on this sequence ([1]; repression): active | binding result [7]: binds | binding result [8]: binds | binding result [2]: binds | binding result [3]: binds | binding result [4]: binds more weakly | binding result [5]: binds

AAGGGGACTATCTTTTAGCGGCAGGCCCTT (double strand) [SPI1-Mutant duplex]
binding result ([6]; variant of SPI1-WT duplex): binds more weakly

CACGTGTCACCTTAAACTCCCACCCCAACCAGCGCAGGCGCACTTCGAAGCCTCCTAGACCAACCTAAGAGAAGTACTGAGCAAGCGCATGAGTTCCATTAACCACGCCCTCCGGAGCTGCCGGAGCAGGCGCAATTAGGAGTAGAGGGCGTGCTTGTGTGATTACAGTCCACTTTACCTTTAACAGATTTGGTTGTCTGGACTCTAGCTCAGGTTCTTTTACCCCTGTCTTGTTGGAAGTCACTTTGCCTAGAGTAGAAGTTGTTTGCGGGAAAAATTTGCTCCTCCCATTAAGTAACCACTTTGCTCTCTGAGGCGGAACGTGTCATTGAGGCAGCAAGTCCTGACAGATATGGAAAAAAAAAGGCACATTGTAGAGAATATCTACACTCCGCCAACTCAGTCACAACGCAAAAATTACACAAAAATAAAACGTTCACTTGTTACATACTATGTGTTTCATAAGACATACAAGTAGTTTTATTTTCCTATATCAATGAGAACAGCACTTCTAACTATTAACAAGGACCTATACTAAGACGCAGCGCGTGCGCGAGCCATCTGGCGCTGTAAAGCGCTTAGAGGCTGGAATAACGACCTGCCTTACGCTTTGCGGCTGTCGTCGGAGAGGCATCTGGGTTCGGACTGGGGCCGCCATGGGGAAAGTGAATGTGGCCAAGTTGCGTTACATGAGCCGAGATGACTTCAGGGTCTTGACCGCGGTAAGAAACCCGCCGTTCCTGTTCTCCCTTCCCCTTAACACTGTGTGACCTCTTCCTGTTCCTGCAAGTTTTCTGGGATCTGAGCAGGCACACTCTGGGACCCGGGACGTGGCAGAAGCTGGGAATGGAGAAGAGAGCATTCAGAAAGTCGGATTTTTAAAAAGGTTTTGTTTGGGAGCTTACCTTCCCCCAGATAGAGCAAAGGTCCCGTCTTCTAATAATTGTTTTCTTTTCTGCTGCTATTCGCTTTGCGCTGAAGAGAAACGCTTGCATCTCTGTGGCCTGGAAACTTCTCTGATCCTGAGCTTCCGACCAGCTGTGAAAG (double strand) [RIOK2 promoter]
activity on this sequence (GATA1 [9]): active | binding result (GATA1 [10]): binds

AGGCAGTGCCTTGGCGAAGCTGTCCGCGGTCCCTGCGGCGCAGCCGGAGCGCACGGGCCCAAGAAGAAGTGGGGTTGGACCCCGCCCCGCGGGCCCCGGGGGTACTAACCCCGCGCGGGCGGCCGCGGCCCCGCCACTTGATTCTGGAGGATTTGTTCTGGGGCTGCGGCCGCGGAGTCGGGGCGGCCGCGGGCGAGCTTCGGGGCGGGAGGCGGCGGCAGCGGCACAGCCCCGCGCGGGCCCCGCCGCGGCCCAGGCAGCCGGGACAGCCACGAGGGGCGGCCGCACGCGGGGCCGCGCGCCGAGGATGCGGGACTAGCCGGGCAGGCTGCGGGCGGCCGTCGGGCCAGCGAGGCCTCGCAGCGGGCGGGCCCTGGCGAGTAGTGGCCGGGCGCCGCCCCCTGCGCCCTGAGGCCCGGGCCCCGCCGCTTCTGCTTTCCCGCTTCTCGCGGCAGCGGCGGCCGAGGAGGCGCCCGCGCCGGCCGCCCCCGGGGGAAGCCGCGCCGTCTCCGCCTGCCCGGCGCCCTGACGGCCGCTGTTATGCGTATTCCCGTAGACCCAAGCACCAGCCGCCGCTTCACACCTCCCTCCCCGGCCTTCCCCTGCGGCGGCGGCGGCGGCAAGATGGGCGAGAACAGCGGCGCGCTGAGCGCGCAGGCGGCCGTGGGGCCCGGAGGGCGCGCCCGGCCCGAGGTGCGCTCGATGGTGGACGTGCTGGCGGACCACGCAGGCGAGCTCGTGCGCACCGACAGCCCCAACTTCCTCTGCTCCGTGCTGCCCTCGCACTGGCGCTGCAACAAGACGCTGCCCGTCGCCTTCAAG (double strand) [RUNX3 promoter]
activity on this sequence ([1]; repression): active | binding result [7]: binds | binding result [8]: binds | binding result [2]: binds | binding result [3]: binds | binding result [4]: binds more weakly | binding result [5]: binds

CTAGCCAGGCCTGGTGGCACACACCTGTAGTCCCAGCTACTCAGGAGGCTGAGGCAGGAGGATCACTGCCGGGAGGCAGTGGTTGCAGTGAGCCGAGATCGTGCCACTGCACTCCAGCCTGGCAACAGAGGAGACCCTGCCTCAAAAAAAAGTGTGTGTGGATGGGGGGGGAAGGATTTCTGTGTCTGAGGACCCCTTCTGTCCTCGCAGGTTAATCCCCAGAGGCTCCATGGAGTTCCCTGGCCTGGGGTCCCTGGGGACCTCAGAGCCCCTCCCCCAGTTTGTGGATCCTGCTCTGGTGTCCTCCACACCAGAATCAGGGGTTTTCTTCCCCTCTGGGCCTGAGGGCTTGGATGCAGCAGCTTCCTCCACTGCCCCGAGCACAGCCACCGCTGCAGCTGCGGCACTGGCCTACTACAGGGACGCTGAGGCCTACAGACACTCCCCAG (double strand) [GATA1 promoter]
activity on this sequence ([1]; activation): active | binding result [7]: binds | binding result [8]: binds | binding result [2]: binds | binding result [3]: binds | binding result [4]: binds more weakly | binding result [5]: binds

CTGCTGCAGGGCTGAGACCCTGGGAGGTCCCAACCCAGGCAAATTGAACGCCAGGCTAATTTGAAGACCCAACTCCCAGCCCTCCCCTTCACCGGAGGACAGAGCTCTAGCTGGCCTGGGCCCCCACCTGATAGCAGCCTCCAACGTCTGGGGTGTCTGATAATCACAGCCTCAGAGTTCACGAGGCAGCCGAGGAAGAGGAGGCTTGAGGCCCAGGGTGGGCACCAGCCAGCCATGGCCACAGCCGAGACCGCCTTGCCCTCCATCAGCACACTGACCGCCCTGGGCCCCTTCCCGGACACACAGGATGACTTCCTCAAG (double strand) [KLF1 promoter]
activity on this sequence ([1]; activation): active | binding result [7]: binds | binding result [8]: binds | binding result [2]: binds | binding result [5]: binds

For part of these data: A weaker result is weaker than the reference pair of the same experiment. For part of these data: Construct, isoform or probe ends are uncertain for at least one entry. For part of these data: Results from cells or extracts need not show a direct contact.
